Results deposited as PubChem BioAssay AID1259308 (NCATS, 2017)

Assay: 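Knock-downs that increase output of a recombinant reporter protein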 (primary screen)
Cells: human HEK293 embryonic kidney cells stably expressing firefly luciferase (HEK-CMV-Luc2-Hygro)
Knock-down reagent: single siRNA against human genes, 0.8 pmol siRNA per well
Time to read-out: 72 h
Measurement: 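Luciferase light (ONE-Glo) measured on one replicate plate set and viability (CellTiter-Glo) on the other, scaled to a negative control siRNA, with robust z-scores and luciferase per cell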
Reading the numbers: total luciferase, z-score: higher = more reporter protein produced
Call rule: 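An siRNA counts as active if its total luciferase robust z-score exceeds 3; genes with two or more such siRNAs out of three were retested with fresh siRNAs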
Calls: active = raised luciferase; inactive = no rise
Shown is an unselected part of about 59,000 reagents. In the full data, about 1,510 (2.6%) got an active call. 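Calls use total luciferase alone and ignore viability, so some active siRNAs may act by altering cell number.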 Reagents against one gene are numbered here. Further read-outs or replicates are left out here. No sequences are given here.

Gene | siRNA no. | total luciferase, z-score | call
TRPS1 | 1 | -0.383 | inactive
TRPS1 | 2 | -0.887 | inactive
TRPS1 | 3 | -0.642 | inactive
AP4M1 | 1 | 0.126 | inactive
AP4M1 | 2 | -2.73 | inactive
AP4M1 | 3 | -0.947 | inactive
CCN2 | 1 | -0.382 | inactive
CCN2 | 2 | -0.217 | inactive
CCN2 | 3 | -0.0844 | inactive
TAS2R19 | 1 | 0.699 | inactive
TAS2R19 | 2 | 1.54 | inactive
TAS2R19 | 3 | -0.269 | inactive
RPL31P57 | 1 | 0.389 | inactive
RPL31P57 | 2 | 1.26 | inactive
RPL31P57 | 3 | 0.205 | inactive
KRT6C | 1 | -0.872 | inactive
KRT6C | 2 | 1.31 | inactive
KRT6C | 3 | -0.223 | inactive
WDR88 | 1 | 1.29 | inactive
WDR88 | 2 | -0.646 | inactive
WDR88 | 3 | 0.371 | inactive
DARS2 | 1 | -0.678 | inactive
DARS2 | 2 | -1.64 | inactive
DARS2 | 3 | -0.668 | inactive
CSRNP3 | 1 | -1.23 | inactive
CSRNP3 | 2 | 0.298 | inactive
CSRNP3 | 3 | 0.486 | inactive
PTMS | 1 | 1.2 | inactive
PTMS | 2 | 0.439 | inactive
PTMS | 3 | 0.931 | inactive
MAST1 | 1 | 0.586 | inactive
MAST1 | 2 | 0.697 | inactive
MAST1 | 3 | 0.852 | inactive
ZNF71 | 1 | 2.35 | inactive
ZNF71 | 2 | -1.45 | inactive
ZNF71 | 3 | -0.221 | inactive
SASH1 | 1 | -0.0481 | inactive
SASH1 | 2 | 1.34 | inactive
SASH1 | 3 | 1.24 | inactive
ADIPOQ | 1 | 0.0589 | inactive
ADIPOQ | 2 | -0.0999 | inactive
ADIPOQ | 3 | -0.271 | inactive
SPDL1 | 1 | -1.59 | inactive
SPDL1 | 2 | -0.616 | inactive
SPDL1 | 3 | -0.579 | inactive
RBM12B | 1 | -0.577 | inactive
RBM12B | 2 | -0.259 | inactive
RBM12B | 3 | 0.67 | inactive
DOCK11 | 1 | -1.91 | inactive
DOCK11 | 2 | -1.8 | inactive
DOCK11 | 3 | -2.84 | inactive
CDNF | 1 | 0.613 | inactive
CDNF | 2 | -0.59 | inactive
CDNF | 3 | 0.0659 | inactive
KIF5A | 1 | -0.215 | inactive
KIF5A | 2 | -2.36 | inactive
KIF5A | 3 | 0.158 | inactive
